# Library screen at single concentrations

The chains behind the UniProt entries cited, without tags or fusion partners. Residues count along the entry.
UniProt Q4DA54, 1-478: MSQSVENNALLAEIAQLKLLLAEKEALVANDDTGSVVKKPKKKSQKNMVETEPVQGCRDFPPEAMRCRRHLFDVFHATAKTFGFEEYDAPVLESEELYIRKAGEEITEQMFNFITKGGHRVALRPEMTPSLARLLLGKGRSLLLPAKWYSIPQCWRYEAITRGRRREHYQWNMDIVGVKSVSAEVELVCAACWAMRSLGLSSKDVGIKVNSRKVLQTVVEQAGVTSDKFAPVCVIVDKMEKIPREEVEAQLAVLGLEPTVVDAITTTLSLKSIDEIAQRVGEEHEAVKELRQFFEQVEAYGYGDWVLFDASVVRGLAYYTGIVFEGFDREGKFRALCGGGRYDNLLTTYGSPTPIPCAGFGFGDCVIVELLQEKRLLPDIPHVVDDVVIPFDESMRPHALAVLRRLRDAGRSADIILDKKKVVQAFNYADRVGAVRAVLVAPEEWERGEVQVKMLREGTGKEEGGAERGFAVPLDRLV
UniProt A4I591, 1-473: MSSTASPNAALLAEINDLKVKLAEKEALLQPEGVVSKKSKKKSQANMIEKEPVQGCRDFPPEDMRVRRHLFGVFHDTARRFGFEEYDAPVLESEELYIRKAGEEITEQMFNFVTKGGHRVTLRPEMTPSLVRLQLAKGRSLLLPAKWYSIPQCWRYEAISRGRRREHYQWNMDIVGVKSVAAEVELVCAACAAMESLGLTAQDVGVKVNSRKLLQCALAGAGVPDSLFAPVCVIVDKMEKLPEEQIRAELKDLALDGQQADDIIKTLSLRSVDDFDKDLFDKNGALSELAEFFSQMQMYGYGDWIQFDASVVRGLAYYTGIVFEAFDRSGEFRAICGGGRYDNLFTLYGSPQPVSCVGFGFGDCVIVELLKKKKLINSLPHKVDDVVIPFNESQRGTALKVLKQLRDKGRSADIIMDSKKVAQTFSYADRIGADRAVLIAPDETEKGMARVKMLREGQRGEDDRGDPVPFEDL
UniProt Q8IDJ8, 1-583: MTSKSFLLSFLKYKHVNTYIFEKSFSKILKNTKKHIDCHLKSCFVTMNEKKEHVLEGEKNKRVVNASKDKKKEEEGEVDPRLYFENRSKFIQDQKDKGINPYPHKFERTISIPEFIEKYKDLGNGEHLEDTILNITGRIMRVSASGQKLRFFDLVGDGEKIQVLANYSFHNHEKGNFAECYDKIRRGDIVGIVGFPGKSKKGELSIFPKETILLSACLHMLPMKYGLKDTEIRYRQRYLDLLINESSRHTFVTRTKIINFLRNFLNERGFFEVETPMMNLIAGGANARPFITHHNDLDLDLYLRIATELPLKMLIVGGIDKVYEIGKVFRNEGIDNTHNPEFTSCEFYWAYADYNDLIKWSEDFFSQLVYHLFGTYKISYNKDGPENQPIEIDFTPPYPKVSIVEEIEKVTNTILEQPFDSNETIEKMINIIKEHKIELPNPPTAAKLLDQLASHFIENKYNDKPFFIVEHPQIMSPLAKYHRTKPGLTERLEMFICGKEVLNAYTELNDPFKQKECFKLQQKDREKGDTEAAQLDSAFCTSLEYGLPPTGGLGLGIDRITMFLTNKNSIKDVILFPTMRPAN
UniProt P9WNZ1, whole entry: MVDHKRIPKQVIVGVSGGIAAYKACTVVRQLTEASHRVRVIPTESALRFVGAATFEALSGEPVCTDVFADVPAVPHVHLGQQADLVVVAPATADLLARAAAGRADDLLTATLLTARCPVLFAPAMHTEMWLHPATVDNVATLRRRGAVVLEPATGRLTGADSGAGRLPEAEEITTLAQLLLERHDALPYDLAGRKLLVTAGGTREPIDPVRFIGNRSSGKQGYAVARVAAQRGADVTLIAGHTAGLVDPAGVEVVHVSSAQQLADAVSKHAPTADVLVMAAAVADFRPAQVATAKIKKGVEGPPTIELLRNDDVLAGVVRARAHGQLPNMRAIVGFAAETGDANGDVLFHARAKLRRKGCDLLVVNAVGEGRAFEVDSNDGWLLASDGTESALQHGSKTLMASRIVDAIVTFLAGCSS

Data taken from ChEMBL document CHEMBL3988442, “University of Dundee, Small-Polar-MMV Screening Library” (2021).

Each number is a percent effect as filed. The record does not define 0% and 100%; most values in the screen are far below 50% and negative numbers occur (in some assays of this library far below -100). This is an unselected part of the compounds tested.

A: 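Histidine-tRNA ligase, Trypanosoma cruzi CL Brener (UniProt Q4DA54). Enzyme assay of histidyl-tRNA synthetase; the read-out is not stated. Concentration: 30 µM. Direction is inferred from retests: higher values go with stronger inhibition. Of about 69,000 compounds tested this way, about 31 (0.045%) reached 50% or more in at least one test.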
B: 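Enzyme assay of histidyl-tRNA synthetase; the read-out is not stated. Target: Histidine-tRNA ligase, Leishmania infantum (UniProt A4I591). Tested at 30 µM. The record gives no direction; compounds that gave an IC50 in retests scored well above the rest, so higher reads as stronger inhibition. The assay is labelled LdHisRS but filed under L. infantum. Of about 69,000 compounds tested this way, about 410 (0.6%) reached 50% or more in at least one test.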
C: 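Assay of Toxoplasma gondii numbers, read through their beta-galactosidase reporter with a colour substrate. Compounds at 10 µM. The record gives no direction; the compounds picked for IC50 retests had high values, so higher reads as fewer parasites. Size under these conditions: about 67,000 compounds, about 260 of them at 50% or above in at least one test.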
D: 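Lysine-tRNA ligase, Plasmodium falciparum 3D7 (UniProt Q8IDJ8). Enzyme assay of the cytosolic lysyl-tRNA synthetase in 384-well plates, read by luminescence. Tested at 30 µM. Direction is inferred from only a few compounds that gave an IC50; most scored high, so higher reads as stronger inhibition. Size under these conditions: about 69,000 compounds, about 49 of them at 50% or above in at least one test.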
E: 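Coenzyme A biosynthesis protein CoaBC, Mycobacterium tuberculosis (UniProt P9WNZ1). Enzyme assay of CoaBC with a phosphate dye (Biomol Green) read at 650 nm. Tested at 30 µM. Higher reads as stronger inhibition, judged from the few compounds that gave an IC50. Most strong results did not repeat in a second test. Size under these conditions: about 67,000 compounds, about 40 of them at 50% or above in at least one test.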

COc1ccc(NS(=O)(=O)CC2=NC(=O)n3cccc3C2=O)cc1Cl read A: -2.924%; B: 0%; C: 2.875%; D: 4.267%; E: -0.2525%.
CC(C)c1nccn1C1CCCN(C(=O)c2ccc3c(c2)OCO3)C1 (configuration not stated) read A: 3.396%; B: -32%; C: -9.155%; D: 0.4019%; E: 7.692%.
NC(=O)Cn1ccc(NC(=O)C2(c3ccc(F)cc3)CC2)n1 read A: 2.062%; B: 12.9%; C: -8.816%; D: 0.9322%; E: 0.2445%.
CN(Cc1nnc(-c2ccco2)o1)Cc1nc2c(s1)CCCC2 read A: 10.05%; B: 11.76%; C: -5.229%; D: 7.372%; E: 4.888%.
CC(=O)Nc1nc(C(=O)N2CCCCC2Cn2cccn2)cs1 (configuration not stated) read A: 3.79%; B: 6.195%; C: 4.988%; D: 0.09483%; E: 5.222%.
Cn1nnc2cc(C(=O)N3CCCC3Cc3ccccc3)ccc21 (configuration not stated) read A: -0.8264%; B: 11.54%; C: -0.7663%; D: -3.327%; E: 10.87%.
O=C(CCc1nc2cc(Br)cnc2[nH]1)NCCCN1CCOCC1 read A: 0%; B: 10.53%; C: -4.221%; D: -1.983%; E: 3.797%.
Cc1nc(C(C)(C)C)sc1C(=O)NCCn1cccn1 read A: 4.762%; B: 15.56%; C: 5.558%; D: 9.217%; E: -6.127%.
CCCS(=O)(=O)N1CCC2(CN(c3cnn(C)c3)C(=O)CN2C)C1.O=C(O)C(F)(F)F (configuration not stated) read C: -10.76%.
CC(=O)NCc1ccc(C(=O)N2CCCC2c2cnn(C)c2)cc1 (configuration not stated) read A: 1.714%; B: 13.46%; C: -36.68%; D: 1.936%; E: 3.106%.
CNc1nc(C2CCCN(C(=O)C(C)C)C2)nc2c1CN(C)CC2 (configuration not stated) read A: 4.563%; B: 2.069%; C: 12.34%; D: 1.033%; E: -3.337%.
CC(O)C(=O)N1CCN(c2ccccc2Cl)C(=O)C1 (configuration not stated) read A: -1.734%; B: 0%; C: -20.03%; D: 3.013%; E: -0.4963%.
CSc1ncccc1C(=O)N1CCC2(CC1)OCCCC2O (configuration not stated) read A: 2.703%; B: 2.74%; C: 6.928%; D: 0.9496%; E: 14.09%.
O=C(c1ccno1)N1CCc2ncnc(-c3ccncc3)c2CC1 read A: 2.222%; B: 7.547%; D: 2.445%; E: 0.4878%.
CN(C)c1ncc2c(n1)C1(CCN(CC3CC3)C1)COC2 (configuration not stated) read A: 4.959%; B: 13.33%; D: -0.6289%; E: -18.28%.
CC(C)Sc1ccc(C(C)NC(=O)Cn2cccnc2=O)cc1 (configuration not stated) read A: 4.046%; B: 9.333%; C: 1.653%; D: 1.833%; E: 14.05%.
Cc1nc(CN(C)C(=O)c2cc(C)sc2NC(=O)C(C)(C)C)no1 read A: 7.595%; B: 14.58%; C: -0.5821%; D: -3.255%; E: 2.885%.
COc1ccnc(N2CCN(C(=O)Cc3ccsc3)CC2)n1 read A: 6.706%; B: 13.27%; C: -10.87%; D: 1.206%; E: 3.133%.
O=C(CCc1nc(Cl)n[nH]1)N1C[C@@H](CN2CCCCCC2)[C@@H](CO)C1 read A: 3.743%; B: 2.618%; C: 3.933%; D: 0.4861%; E: -10%.
Cc1ccc(CN2C[C@H](OCCN(C)C)[C@H]3OCCC[C@H]32)o1 read A: 4.908%; B: 10.26%; D: -20.21%.
Nc1nc(CNc2nccc(CCC(F)(F)F)n2)cs1 read A: 11.23%; B: 17.28%; C: -0.8115%; D: -0.1017%; E: 4.783%.
Cc1cccc(C(=O)NCc2ccc(CS(N)(=O)=O)cc2)n1 read A: 1.149%; B: 13.91%; C: -8.505%; D: 0.1549%; E: 3.742%.
CCOc1ccc(Cl)c(C(=O)N2CCCC(N3CCCC3)C2)n1 (configuration not stated) read A: 7.182%; B: 3.125%; C: -27.85%; D: 3.331%; E: -6.25%.
COc1ccc(S(N)(=O)=O)cc1C(=O)N(C)Cc1cc(C)on1 read A: -6.107%; B: 8.511%; C: -1.729%; D: 3.446%; E: 2.85%.

2 of the entries, repeated:

- CN(Cc1nnc(-c2ccco2)o1)Cc1nc2c(s1)CCCC2 | A: 10.05%; B: 11.76%; C: -5.229%; D: 7.372%; E: 4.888%
- CCCS(=O)(=O)N1CCC2(CN(c3cnn(C)c3)C(=O)CN2C)C1.O=C(O)C(F)(F)F (configuration not stated) | C: -10.76%